Reference: patent US11596628B2, “Long acting injectable formulations” (Abon Pharmaceuticals, LLC, priority 2016, dated 2023)
At least one structure is not confirmed: it was looked up by name or label, or the drawing left a doubt.

Test: Sieve analysis of meloxicam particle size
Assay type: physicochemical

SMILES: Cc1cnc(NC(=O)C2=C(O)c3ccccc3S(=O)(=O)N2C)s1 [Meloxicam]
- particles, by weight, less than 10 microns: 92.9%
